Test results published in paper PMC3979416 (The Journal of Biological Chemistry, 2014).

Legend:
BRD4 BD1 wild type = conditions: WT, TSA
BRD4 BD1 Y97F = conditions: TSA
BRD4 BD1 N140A = conditions: TSA

## Cc1sc2c(c1C)C(c1ccc(Cl)cc1)=N[C@@H](CC(=O)OC(C)(C)C)c1nnc(C)n1-2 [JQ1, tert-butyl[(6S)-4-(4-chlorophenyl)-2,3,9-trimethyl-6H-thieno[3,2-f][1,2,4]triazolo[4,3-a][1,4]diazepin-6-yl]acetate]
BRD4 BD1 wild type
  ΔG°: -12.3 kcal/mol
  −TΔS°: -8.96 kcal/mol
BRD4 BD1 wild type; 100 μM JQ1 vs DMSO
  ΔH°b: -3.3 kcal/mol
BRD4 BD1 Y97F
  ΔG°: -10.9 kcal/mol
  −TΔS°: -7.19 kcal/mol
BRD4 BD1 Y97F; 100 μM JQ1 vs DMSO
  ΔH°b: -3.7 kcal/mol
BRD4 BD1 N140A
  ΔG°: -11 kcal/mol
  −TΔS°: -8.15 kcal/mol
BRD4 BD1 N140A; 100 μM JQ1 vs DMSO
  ΔH°b: -2.84 kcal/mol
